## Library screen at single concentrations

The values are deposited in ChEMBL (CHEMBL3988442, “University of Dundee, Small-Polar-MMV Screening Library” (2021)).

Values are the deposited “Percent Effect”, in %. How 0% and 100% were set is not recorded. Most values in the screen are low, and negative values occur. Compounds were drawn at random from those tested, without regard to their results. A dash means the value is not listed here; it may have been measured.

T. brucei: 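Whole-parasite assay of Trypanosoma brucei over 72 hours; the read-out is not stated. Tested at 30 µM. Direction is inferred from retests: higher values go with stronger inhibition. Values scatter widely below zero; nearly all retest evidence comes from the higher of the two concentrations used. Size under these conditions: about 64,000 compounds, about 940 of them at 50% or above in at least one test.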
Toxoplasma: 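Assay of Toxoplasma gondii numbers, read through their beta-galactosidase reporter with a colour substrate. Concentration: 10 µM. The record gives no direction; the compounds picked for IC50 retests had high values, so higher reads as fewer parasites. Size under these conditions: about 67,000 compounds, about 260 of them at 50% or above in at least one test.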

structure,T. brucei,Toxoplasma
CCCN1CCN(C(=O)c2ccc(Cn3cc(Br)cn3)cc2)CC1,13%,-6.992%
CC(C)CCC(=O)N1CCN(C(=O)c2ccc(-n3cccn3)cc2)CC1,-21.04%,-6.145%
CCc1ccc(O)c(C(=O)NC2CCN(Cc3ccncc3)CC2)c1,4.916%,-0.5263%
CN(C)C(=O)N1CCN(C(=O)C(c2ccccc2F)N(C)C)CC1 (stereo unspecified),7.56%,-6.63%
O=C(O)C(F)(F)F.O=C(O)C(F)(F)F.c1nc(CNC2CCOCC2)c2n1CCCN(CC1CC1)C2,-38.3%,-4.412%
Cc1nn(C)c(N(C)C)c1CNCc1ccc(N(C)C)nc1,-3.593%,-2.493%
O=C(c1scc2c1OCCO2)N1CCOC(Cc2cccc(F)c2)C1 (stereo unspecified),7.77%,-4.032%
CCCn1ncc2c(C(=O)Nc3n[nH]c(SC)n3)cc(C3CC3)nc21,16.15%,3.883%
O=C(c1ccncc1)N1CCCn2c(CN3CCCCC3)nnc2C1,19.87%,3.383%
CN(C)C(=O)N1CC2(CCN(S(=O)(=O)C3CC3)CC2)c2ccccc21,-31.84%,11.18%
CC(C)c1noc(OCc2cccc(C#N)c2)n1,-32.09%,-36.19%
Cc1ccoc1-c1nnc(CN2CCn3c(nnc3C3CC3)C2)o1,-5.903%,-0.07003%
Cc1ccccc1C(C)CC(=O)N1CC[C@H](O)C1 (stereo partly specified),-,-4.65%
CC(C)(CNc1cn[nH]c(=O)c1Cl)c1ccc2c(c1)OCO2,-38.41%,4.063%
O=C(O)C[C@@H]1CCN(C(=O)c2cccs2)C[C@@H]1CCN1CCCCC1,-13.2%,13.36%
CCc1ccc(S(=O)(=O)Nc2cnc(N3CCOCC3)nc2)cc1,-28.64%,-10.16%
Cc1cc(CN2CCc3c(CNc4ncccn4)cncc3C2)oc1C.Cl.Cl,-5.954%,4.683%
CCC(CN1CCCC1)n1cncc1-c1cnn(-c2ccc(F)cc2)c1.Cl (stereo unspecified),17.43%,9.001%
COc1cc(C)nc(N2CCN(C(=O)c3cc(C)no3)CC2)n1,-27.24%,-21.6%
CCN1CCN(CCNc2nc3ccc(C)cc3c(=O)n2C)CC1,-42.82%,5.783%
CSCC[C@H](NC(=O)Cn1ccc2c(Br)cccc21)C(=O)O,-35.65%,-0.5021%
O=C(O)C(F)(F)F.O=C(O)C(F)(F)F.[H][C@@]12COC[C@]1(COc1cccnc1)CN(c1cc(OC)ncn1)C2,-,-0.8069%
CCCN(CCc1ccccc1)C(=O)c1ccccc1NCC(=O)O,-30.64%,-2.411%
O=C(O)C(F)(F)F.[H][C@]12CCC(=O)N(c3cccnc3)[C@@]1([H])CCN2C(=O)c1ccc(C)o1,-23.9%,10.12%
Cc1c(C2NC3(CCCC3)C(=O)N2CC2CC2)cc(C#N)n1C (stereo unspecified),2.313%,6.843%
N#Cc1ccnc(N2CCN(C3CCOC3=O)CC2)c1 (stereo unspecified),-36.92%,-3.287%
Cc1cc(C(C)NC(=O)c2cnc3onc(C)c3c2)c(C)o1 (stereo unspecified),-37.88%,-0.863%
Cc1nc[nH]c1CN1CCN(C2CCOCC2)CC(C(N)=O)C1 (stereo unspecified),13.68%,0.5357%
CC(C)CNC(=O)c1nc2c(s1)CCN(C(=O)c1ccc(Cl)cc1)CC2,8.509%,12.9%
O=C(O)C(F)(F)F.[H][C@@]12CN(Cc3ccccn3)C[C@]1([H])CN(c1cc(OC)ncn1)C2,-88.91%,-6.252%
Cc1ccc(C2CSCCN2CCS(C)(=O)=O)cc1 (stereo unspecified),-11.74%,-3.283%
Cn1ncc(N2CCOC(CCNC(=O)NC(C)(C)C)C2)cc1=O (stereo unspecified),-47.97%,32.12%
CC(C)C(NC(=O)Cc1ccccc1)C(=O)NCc1ccc(O)nc1 (stereo unspecified),-17.78%,-15.88%
O=C1NCCCCC1NCc1csc(-c2ccsc2)n1 (stereo unspecified),-14.94%,-1.941%
Cc1cn2c(n1)CCC(NC(=O)c1ccc(CS(C)(=O)=O)o1)C2 (stereo unspecified),-8.025%,-22.87%
CCc1nc(-c2noc3ccc(C(=O)N(C)CCOC)cc23)co1,-3.398%,7.618%
CC(NC(=O)CCn1cncn1)c1nnc2n1CCCCC2 (stereo unspecified),5.697%,-3.337%
Cc1ccsc1CNCc1c(C(C)C)nn(C)c1N1CCOCC1,-1.277%,-12%
O=C(O)C(F)(F)F.O=C(O)C(F)(F)F.[H][C@@]12C[C@@H](C(=O)Nc3cccnc3)CN(Cc3ccsc3)[C@]1([H])CCO2,-13.94%,-3.797%
Cc1cn(CC(=O)NC2CCN(S(C)(=O)=O)CC2)c2ccccc12,-27.28%,-1.967%
OCC(CO)N1CCCC(Cc2ccnc(Nc3ccccn3)c2)C1 (stereo unspecified),6.612%,1.783%
O=C(C1CCCc2[nH]ncc21)N1CCCC1 (stereo unspecified),-56.03%,0.9038%
O=C(COCC1CC1)Nc1ccn(Cc2cccc3cccnc23)n1,-21.08%,3.715%
CN1CCC(C2CCN(Cc3cccc(-n4cccn4)c3)CC2)C1 (stereo unspecified),-18.85%,-11.45%

Some entries from above, unchanged:

structure,T. brucei,Toxoplasma
OCC(CO)N1CCCC(Cc2ccnc(Nc3ccccn3)c2)C1 (stereo unspecified),6.612%,1.783%
CC(C)CCC(=O)N1CCN(C(=O)c2ccc(-n3cccn3)cc2)CC1,-21.04%,-6.145%
COc1cc(C)nc(N2CCN(C(=O)c3cc(C)no3)CC2)n1,-27.24%,-21.6%
Cc1ccccc1C(C)CC(=O)N1CC[C@H](O)C1 (stereo partly specified),-,-4.65%